According to publication PMC6166131:
No constants are given. Whether binding was seen depends on the method and setting. Some binding calls cover weakened binding; strength is not graded here. Tags and fused reporters may be left off the sequences shown.

Target: T1, ARABIDOPSIS HOMOLOG OF TRITHORAX1 (ATX1), full-length, Gal4 BD fusion (Arabidopsis thaliana) (UniProt Q9C5X4)
T1 sequence: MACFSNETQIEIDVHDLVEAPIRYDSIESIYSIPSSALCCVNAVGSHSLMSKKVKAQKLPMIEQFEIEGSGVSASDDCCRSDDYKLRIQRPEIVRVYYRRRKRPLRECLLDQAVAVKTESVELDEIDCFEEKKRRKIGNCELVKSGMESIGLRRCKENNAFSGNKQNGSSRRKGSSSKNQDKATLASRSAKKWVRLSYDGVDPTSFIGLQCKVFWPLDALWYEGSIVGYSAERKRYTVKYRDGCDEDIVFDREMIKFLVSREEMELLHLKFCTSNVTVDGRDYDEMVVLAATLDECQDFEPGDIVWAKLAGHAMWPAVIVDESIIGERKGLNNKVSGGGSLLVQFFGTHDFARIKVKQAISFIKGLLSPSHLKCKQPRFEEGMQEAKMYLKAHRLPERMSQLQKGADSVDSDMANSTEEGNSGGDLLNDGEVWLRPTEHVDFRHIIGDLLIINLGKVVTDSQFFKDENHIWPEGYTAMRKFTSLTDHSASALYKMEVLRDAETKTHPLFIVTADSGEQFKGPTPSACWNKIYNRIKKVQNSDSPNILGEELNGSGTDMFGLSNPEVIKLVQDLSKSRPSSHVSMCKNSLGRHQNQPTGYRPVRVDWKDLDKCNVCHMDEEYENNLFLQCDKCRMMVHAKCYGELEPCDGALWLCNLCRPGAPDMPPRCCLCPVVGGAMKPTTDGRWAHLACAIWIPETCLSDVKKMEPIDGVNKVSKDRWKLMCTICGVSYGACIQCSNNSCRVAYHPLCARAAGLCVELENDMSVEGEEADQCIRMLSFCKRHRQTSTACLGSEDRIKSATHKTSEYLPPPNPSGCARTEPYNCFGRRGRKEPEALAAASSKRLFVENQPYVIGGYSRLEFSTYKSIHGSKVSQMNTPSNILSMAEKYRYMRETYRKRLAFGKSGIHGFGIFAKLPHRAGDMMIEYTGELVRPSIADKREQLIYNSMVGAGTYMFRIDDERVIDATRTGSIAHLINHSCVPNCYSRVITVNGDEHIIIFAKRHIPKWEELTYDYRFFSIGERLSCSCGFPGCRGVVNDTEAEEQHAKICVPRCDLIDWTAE
Experiment: two-hybrid; BD-ATX1 (bait, pGBKT7) cotransformed with AD-SEC or AD-SEC-N (prey, pGADT7) into S. cerevisiae AH109; growth on SD/-Leu/-Trp, then screened on SD/-Leu/-Trp/-His/-Ade

B1: SECRET AGENT (SEC), full-length, Gal4 AD fusion (enzyme, UniProt Q9M8Y0 1-977)
chain: MISSKNGAAMISRPVFLSDRVDEVFSRKLDLSVSSSSSSSLLQQFNKTHEGDDDARLALAHQLYKGGDFKQALEHSNMVYQRNPLRTDNLLLIGAIYYQLQEYDMCIARNEEALRIQPQFAECYGNMANAWKEKGDTDRAIRYYLIAIELRPNFADAWSNLASAYMRKGRLSEATQCCQQALSLNPLLVDAHSNLGNLMKAQGLIHEAYSCYLEAVRIQPTFAIAWSNLAGLFMESGDLNRALQYYKEAVKLKPAFPDAYLNLGNVYKALGRPTEAIMCYQHALQMRPNSAMAFGNIASIYYEQGQLDLAIRHYKQALSRDPRFLEAYNNLGNALKDIGRVDEAVRCYNQCLALQPNHPQAMANLGNIYMEWNMMGPASSLFKATLAVTTGLSAPFNNLAIIYKQQGNYSDAISCYNEVLRIDPLAADALVNRGNTYKEIGRVTEAIQDYMHAINFRPTMAEAHANLASAYKDSGHVEAAITSYKQALLLRPDFPEATCNLLHTLQCVCCWEDRSKMFAEVESIIRRQINMSVLPSVQPFHAIAYPIDPILALEISRKYAAHCSIIASRFGLPPFTHPAGLPVKREGGFKRLRIGYVSSDFGNHPLSHLMGSVFGMHNRENVEVFCYALSANDNTEWRQRIQSEAEHFLDVSAMSSDAIAKIINQDKIQILINLNGYTKGARNEIFAMQPAPIQVSYMGFPGTTGATYIDYLVTDEFVSPLQYAHIYSEKLVHLPHCYFVNDYKQKNQDVLDPNSKPKRSDYGLPEDKFIFACFNQLYKMDPEIVNTWCNILKRVPNSALWLLRFPAAGEMRFRTYAAAQGVQPDQIIFTDVAMKSEHIRRSVLADVILDTPLCNGHTTGTDVLWAGVPMITLPLEKMATRVAGSLCLATGLGHGMIVNSLEEYEEKAVSLALNKPKLQALTKELRASRLTCPLFDTMRWVKNLERSYFKMWNLHCSGQQPQHFKVLENDLEFPHDR
binding: binds
